Data from PMC8755797.
Results are given in words; binding and its absence hold for the method and conditions named. Binding can be weak; no strength is given. For part of these data: Tags and fused reporters may be left off the sequences shown. For part of these data: Binding seen in cells or lysates may run through a third protein. Blank lines part the entries; values can stand above or below the molecule they belong to.

By UniProt entry, the sequences of proteins in these tests, tags left out. Where a name states a change or a piece, a line headed by the entry shows the natural chain unless it says otherwise.
UniProt Q9LXD7: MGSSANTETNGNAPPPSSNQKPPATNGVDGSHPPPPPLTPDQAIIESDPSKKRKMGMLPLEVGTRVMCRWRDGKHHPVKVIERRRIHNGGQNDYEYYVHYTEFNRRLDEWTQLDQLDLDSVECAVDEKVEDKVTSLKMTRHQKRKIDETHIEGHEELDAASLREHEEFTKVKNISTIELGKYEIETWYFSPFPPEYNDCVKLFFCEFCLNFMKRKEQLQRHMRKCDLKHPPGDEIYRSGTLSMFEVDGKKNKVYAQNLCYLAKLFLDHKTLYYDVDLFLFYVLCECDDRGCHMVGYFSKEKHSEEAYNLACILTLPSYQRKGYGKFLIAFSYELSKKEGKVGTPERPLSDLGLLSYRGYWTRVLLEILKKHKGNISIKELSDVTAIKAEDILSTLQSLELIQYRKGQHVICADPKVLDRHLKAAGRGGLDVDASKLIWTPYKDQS
UniProt Q9FX82: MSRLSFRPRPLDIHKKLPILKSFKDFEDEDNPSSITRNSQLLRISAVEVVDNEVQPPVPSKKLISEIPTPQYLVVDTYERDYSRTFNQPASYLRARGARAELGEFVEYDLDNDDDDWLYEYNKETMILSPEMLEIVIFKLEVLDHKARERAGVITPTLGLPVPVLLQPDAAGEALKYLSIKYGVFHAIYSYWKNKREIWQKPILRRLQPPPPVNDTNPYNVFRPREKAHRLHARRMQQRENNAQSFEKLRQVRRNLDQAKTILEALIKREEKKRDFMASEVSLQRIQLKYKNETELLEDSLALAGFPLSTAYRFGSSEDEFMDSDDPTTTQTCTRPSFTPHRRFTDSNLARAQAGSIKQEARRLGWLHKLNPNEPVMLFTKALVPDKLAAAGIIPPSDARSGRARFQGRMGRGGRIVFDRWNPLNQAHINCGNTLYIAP
UniProt F4IDH5: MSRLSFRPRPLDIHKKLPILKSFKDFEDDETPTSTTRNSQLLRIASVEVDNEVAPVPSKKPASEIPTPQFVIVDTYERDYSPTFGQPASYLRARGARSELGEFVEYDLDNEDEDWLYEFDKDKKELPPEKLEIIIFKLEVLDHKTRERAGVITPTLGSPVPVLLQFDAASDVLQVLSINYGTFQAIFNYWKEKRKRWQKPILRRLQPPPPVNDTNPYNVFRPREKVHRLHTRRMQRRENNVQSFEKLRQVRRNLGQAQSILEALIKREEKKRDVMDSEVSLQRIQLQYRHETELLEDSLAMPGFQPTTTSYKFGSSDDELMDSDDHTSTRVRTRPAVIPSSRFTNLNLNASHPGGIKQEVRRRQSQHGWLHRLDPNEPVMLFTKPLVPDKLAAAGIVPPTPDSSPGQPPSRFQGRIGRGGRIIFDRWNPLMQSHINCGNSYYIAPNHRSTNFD

Key:
[1] = biological target: T1, ING2-6×His (A. thaliana) (UniProt B3H615); experiment: pull-down; co-purification: Flag-HAM1, ING2-6×His, AtEPL1A and AtEAF6 co-expressed in E. coli from pST44; cobalt resin via ING2-6×His, then anti-Flag M2 resin, elution with 3×FLAG peptides
T1 sequence: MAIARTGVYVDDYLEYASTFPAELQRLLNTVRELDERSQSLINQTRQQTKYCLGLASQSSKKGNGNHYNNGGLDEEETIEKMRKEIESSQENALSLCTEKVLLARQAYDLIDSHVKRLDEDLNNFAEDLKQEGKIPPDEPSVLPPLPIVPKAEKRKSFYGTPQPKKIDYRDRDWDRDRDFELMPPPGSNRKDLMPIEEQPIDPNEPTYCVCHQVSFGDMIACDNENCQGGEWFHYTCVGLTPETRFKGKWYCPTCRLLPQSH

[2] = biological target: T2, HAM1-6×His (A. thaliana) (UniProt Q9FLF7); experiment: pull-down; co-purification: HAM1-6×His, Flag-AtEPL1A, AtING2 and AtEAF6 co-expressed in E. coli from polycistronic pST44; purified on Talon cobalt resin via HAM1-6×His, eluted with 150 mM imidazole; Coomassie gel, western blot for HAM1-His and Flag-AtEPL1A
T2 sequence: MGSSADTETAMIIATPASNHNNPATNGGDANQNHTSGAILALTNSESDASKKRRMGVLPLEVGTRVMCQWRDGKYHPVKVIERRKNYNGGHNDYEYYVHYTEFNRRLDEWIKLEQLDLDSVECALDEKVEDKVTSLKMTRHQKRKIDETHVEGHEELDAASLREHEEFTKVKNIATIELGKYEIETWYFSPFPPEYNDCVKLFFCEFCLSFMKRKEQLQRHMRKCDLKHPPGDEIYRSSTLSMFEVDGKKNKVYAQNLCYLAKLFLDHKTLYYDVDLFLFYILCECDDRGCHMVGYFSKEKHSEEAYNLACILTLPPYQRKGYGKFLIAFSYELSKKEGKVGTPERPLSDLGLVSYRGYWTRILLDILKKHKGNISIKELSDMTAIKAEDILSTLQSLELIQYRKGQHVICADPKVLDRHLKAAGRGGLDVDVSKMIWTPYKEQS

[3] = biological target: T3, His-HAM1 (A. thaliana) (UniProt Q9FLF7); experiment: pull-down; His-GFP or His-fusion proteins from bacterial lysates bound to HIS-Select HF Nickel Affinity Gel for 1 h, washed, incubated with recombinant GST-fusion proteins 1 h at 4 °C; five washes with wash buffer containing 0.5% NP40; western blot with anti-GST and anti-His; only the target purified
T3 sequence: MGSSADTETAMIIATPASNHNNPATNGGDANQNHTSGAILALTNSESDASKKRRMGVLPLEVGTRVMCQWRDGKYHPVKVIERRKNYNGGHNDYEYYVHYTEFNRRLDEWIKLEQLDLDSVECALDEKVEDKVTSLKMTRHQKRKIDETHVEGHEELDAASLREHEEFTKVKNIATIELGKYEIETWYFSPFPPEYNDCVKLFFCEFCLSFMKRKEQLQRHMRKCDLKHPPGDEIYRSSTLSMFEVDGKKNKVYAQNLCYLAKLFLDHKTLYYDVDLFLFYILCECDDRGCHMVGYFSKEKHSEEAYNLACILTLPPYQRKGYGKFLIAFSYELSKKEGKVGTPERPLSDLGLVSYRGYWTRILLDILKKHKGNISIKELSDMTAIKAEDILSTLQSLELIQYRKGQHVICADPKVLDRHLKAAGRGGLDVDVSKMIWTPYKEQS

[4] = biological target: His-HAM2 (A. thaliana) (UniProt Q9LXD7); experiment: as above
[5] = biological target: T4, His-tagged fragment of AtEAF1B corresponding to AAs 430-1322 (A. thaliana) (UniProt F4J7T2); experiment: as above
T4 sequence: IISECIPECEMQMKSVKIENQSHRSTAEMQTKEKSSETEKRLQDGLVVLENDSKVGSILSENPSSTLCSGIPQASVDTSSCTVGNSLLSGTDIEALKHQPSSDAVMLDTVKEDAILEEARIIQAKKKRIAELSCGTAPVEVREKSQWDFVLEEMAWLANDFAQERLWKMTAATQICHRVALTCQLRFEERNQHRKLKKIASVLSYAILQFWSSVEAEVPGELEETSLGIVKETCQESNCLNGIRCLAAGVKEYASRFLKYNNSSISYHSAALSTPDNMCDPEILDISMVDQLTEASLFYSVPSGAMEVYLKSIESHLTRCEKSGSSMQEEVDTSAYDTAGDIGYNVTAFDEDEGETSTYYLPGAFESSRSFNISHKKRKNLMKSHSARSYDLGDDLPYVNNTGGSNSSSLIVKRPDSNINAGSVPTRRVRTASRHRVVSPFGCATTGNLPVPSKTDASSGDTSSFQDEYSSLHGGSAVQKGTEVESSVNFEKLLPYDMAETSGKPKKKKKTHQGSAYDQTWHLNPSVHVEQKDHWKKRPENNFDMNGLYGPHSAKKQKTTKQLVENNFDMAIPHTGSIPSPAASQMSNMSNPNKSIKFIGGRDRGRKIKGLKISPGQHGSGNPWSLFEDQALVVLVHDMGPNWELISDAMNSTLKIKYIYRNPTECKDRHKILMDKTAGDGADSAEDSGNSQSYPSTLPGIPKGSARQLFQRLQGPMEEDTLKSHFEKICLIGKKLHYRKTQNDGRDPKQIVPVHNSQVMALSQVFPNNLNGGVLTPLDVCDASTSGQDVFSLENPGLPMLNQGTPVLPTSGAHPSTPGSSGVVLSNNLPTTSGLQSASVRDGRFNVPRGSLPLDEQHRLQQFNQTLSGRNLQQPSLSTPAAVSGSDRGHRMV

[6] = biological target: GST-AtEPL1A (A. thaliana) (UniProt Q9FX82); experiment: far-Western, overlay or dot blot; GST-AtEPL1A/B purified on Glutathione Sepharose, resolved by SDS-PAGE, blotted on PVDF and renatured (guanidine-HCl steps in AC buffer); membrane incubated with His-HAM1 or His-HAM2, detected with anti-His; how His-HAM1/2 were prepared for this experiment is not told; only the target purified
[7] = biological target: GST-AtEPL1B (A. thaliana) (UniProt F4IDH5); experiment: as above
[8] = biological target: Flag-AtEPL1A (A. thaliana) (UniProt Q9FX82); experiment: pull-down; co-purification of the co-expressed recombinant picNuA4 subunits with AtEPL1A as bait; procedure not told in the methods (Supplementary Fig. 8a)

binding [1]: binds | binding [2]: binds
Molecule: AtEAF6 (A. thaliana)

binding [1]: binds
Molecule: AtEPL1A (A. thaliana)

binding [2]: binds
Molecule: Flag-AtEPL1A (from UniProt Q9FX82)

binding [8]: binds
B3: AtING2 (protein, UniProt B3H615 1-262)
chain: MAIARTGVYVDDYLEYASTFPAELQRLLNTVRELDERSQSLINQTRQQTKYCLGLASQSSKKGNGNHYNNGGLDEEETIEKMRKEIESSQENALSLCTEKVLLARQAYDLIDSHVKRLDEDLNNFAEDLKQEGKIPPDEPSVLPPLPIVPKAEKRKSFYGTPQPKKIDYRDRDWDRDRDFELMPPPGSNRKDLMPIEEQPIDPNEPTYCVCHQVSFGDMIACDNENCQGGEWFHYTCVGLTPETRFKGKWYCPTCRLLPQSH

The next lines start with the molecule.

Molecule: GST-AtEPL1A (from UniProt Q9FX82)
binding [3]: binds | binding [4]: binds

Molecule: GST-AtEPL1B (from UniProt F4IDH5)
binding [5]: binds | binding [3]: binds | binding [4]: binds

Molecule: His-HAM2 (from UniProt Q9LXD7 1-445) (enzyme)
binding [6]: binds | binding [7]: binds

B1: HAM1-6×His (enzyme, UniProt Q9FLF7 1-445)
chain: MGSSADTETAMIIATPASNHNNPATNGGDANQNHTSGAILALTNSESDASKKRRMGVLPLEVGTRVMCQWRDGKYHPVKVIERRKNYNGGHNDYEYYVHYTEFNRRLDEWIKLEQLDLDSVECALDEKVEDKVTSLKMTRHQKRKIDETHVEGHEELDAASLREHEEFTKVKNIATIELGKYEIETWYFSPFPPEYNDCVKLFFCEFCLSFMKRKEQLQRHMRKCDLKHPPGDEIYRSSTLSMFEVDGKKNKVYAQNLCYLAKLFLDHKTLYYDVDLFLFYILCECDDRGCHMVGYFSKEKHSEEAYNLACILTLPPYQRKGYGKFLIAFSYELSKKEGKVGTPERPLSDLGLVSYRGYWTRILLDILKKHKGNISIKELSDMTAIKAEDILSTLQSLELIQYRKGQHVICADPKVLDRHLKAAGRGGLDVDVSKMIWTPYKEQS
binding [8]: binds

B2: His-HAM1 (enzyme, UniProt Q9FLF7 1-445)
chain: MGSSADTETAMIIATPASNHNNPATNGGDANQNHTSGAILALTNSESDASKKRRMGVLPLEVGTRVMCQWRDGKYHPVKVIERRKNYNGGHNDYEYYVHYTEFNRRLDEWIKLEQLDLDSVECALDEKVEDKVTSLKMTRHQKRKIDETHVEGHEELDAASLREHEEFTKVKNIATIELGKYEIETWYFSPFPPEYNDCVKLFFCEFCLSFMKRKEQLQRHMRKCDLKHPPGDEIYRSSTLSMFEVDGKKNKVYAQNLCYLAKLFLDHKTLYYDVDLFLFYILCECDDRGCHMVGYFSKEKHSEEAYNLACILTLPPYQRKGYGKFLIAFSYELSKKEGKVGTPERPLSDLGLVSYRGYWTRILLDILKKHKGNISIKELSDMTAIKAEDILSTLQSLELIQYRKGQHVICADPKVLDRHLKAAGRGGLDVDVSKMIWTPYKEQS
binding [6]: binds | binding [7]: binds
